Our source for the AC50 values is PubChem BioAssay AID662 (National Center for Advancing Translational Sciences (NCATS), 2007).

This is one part of the list. Shown are side measurements of this screen, not its main read-out; they come without a call. Compounds called inactive in the main read-out are mostly missing here. The note in brackets gives the kind of curve behind each potency; many fits are weak.

This experiment can be described thus: Cell signaling CRE-BLA (Fsk stim). As to conditions: CHO CRE-bla reporter (cAMP response element driving beta-lactamase), forskolin EC10, beta-lactamase ratio; measured here: 460 nm blue channel. A digest of the protocol: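 Beta-lactamase reporter under a cAMP responsive element in CHO cells; compounds tested in titration series against EC10 NKH 477, 3 h at 37 °C. Read-out: CCF4 FRET ratio 460nm/530nm (excitation 405nm) giving %Activity, fitted to AC50.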
For orientation: AC50 means the concentration at which the activity in the assay is half-maximal. For the compound `CN(C)c1oc(-c2ccc(OCc3ccccc3)cc2)nc1C#N`, the AC50 is 3.98 µM [rising, partial curve].

Regarding `N[C@@H](C(=O)O)c1ccc(C(=O)O)c(O)c1`, the AC50 is 25.1 µM [falling, single point].

With `CN/C(=C\[N+](=O)[O-])NCCSCc1ccc(CN(C)C)o1`, the AC50 was 25.1 µM [falling, partial curve, poor fit].

With `Cc1cccc(OCC(=O)Nc2ccccc2N2CCCCC2)c1`, the AC50 is 3.98 µM [rising, full curve]. For the compound `CC1=NC(Nc2nc(C)c3ccccc3n2)=NC(C)(C)C1`, the AC50 is 12.6 µM [rising, single point]. For `CN1CCN(c2nc3ccccc3nc2C(C#N)C(=O)OC2CCCCC2)CC1` (stereo not drawn), the AC50 is 2 µM [rising, partial curve]. The figure for `c1ccc2nc3c(nc2c1)c1ccccc1n3CCN1CCOCC1` is 12.6 µM [rising, partial curve]; for `Cc1cc(C)c2c(n1)nn1c(NCCOCCO)cc(C)nc21` it is 20 µM [rising, partial curve]; for `CCc1c(C)nc2ncnn2c1N1CCC(C(=O)NCc2ccc3c(c2)OCO3)CC1` it is 10 µM [rising, partial curve]. To `COC(=O)Nc1nc2ccc(Sc3ccccc3)cc2[nH]1` belongs 2.51 µM [rising, full curve]. The figure for `CCn1c(CNc2ccc(Cl)cc2)nnc1SCC(=O)NCc1ccccc1` is 0.0631 µM [falling, partial curve, poor fit]. `Cc1cc(NCCN2CCOCC2)n2ncc(-c3ccccc3)c2n1`: the AC50 is 3.16 µM [falling, single point]. The figure for `CCCN1CCN(CCCNC(=O)CN2C(=O)COc3ccccc32)CC1` is 31.6 µM [falling, partial curve, poor fit]; for `CCN(CC)S(=O)(=O)c1ccc2oc(C(=O)Nc3ccc(OC)cc3OC)c(C)c2c1` it is 12.6 µM [rising, partial curve].

Regarding `Cc1cc(N2CCN(C(=O)c3ccco3)CC2)n2nc(-c3cccc(Cl)c3)cc2n1`, the AC50 was 5.01 µM [rising, single point]. To `Cc1ccc(N(CC(=O)Nc2ccc(C)cn2)S(=O)(=O)c2c(C)nn(C)c2C)cc1` belongs 1.58 µM [rising, partial curve]; to `CCC(Sc1nc2n[nH]c(C)c2c(=N)n1-c1ccc(C)c(Cl)c1)C(=O)N1CCOCC1` (stereo not drawn), 12.6 µM [rising, partial curve]; to `CCn1cc(C(=O)NCCCN2CCC(C)CC2)c2cc(OC)c(OC)cc2c1=O`, 15.8 µM [rising, partial curve]. `Cc1cnc(C(=O)Nc2cccc3cccnc23)cn1`: the AC50 was 3.98 µM [falling, single point]. The figure for `Cc1cc(NC(=O)CSc2nc3ccccc3c(=O)n2C2CCCC2)no1` is 12.6 µM [rising, partial curve]. To `N#Cc1cccc(-c2cc(NCc3cccnc3)ncn2)c1` belongs 12.6 µM [rising, partial curve]. For the compound `O=c1c(-c2ccc(Cl)cc2)nc2cncnc2n1Cc1ccc(F)cc1`, the AC50 was 6.31 µM [rising, partial curve]. The figure for `O=C(CC(c1ccccc1O)N1CCCCC1)N1CCCCC1` (stereo not drawn) is 0.316 µM [rising, partial curve]. To `CCC(CC)COC(=O)C(C#N)c1nc2ccccc2nc1N1CCOCC1` (stereo not drawn) belongs 10 µM [rising, partial curve].

Take `COC(=O)c1c(N)n(-c2cc(OC)cc(OC)c2)c2nc3ccccc3nc12`: the AC50 is 7.94 µM [rising, partial curve]. With `CCOC(=O)C1CCN(C(=O)c2oc3ccc(S(=O)(=O)N4CC(C)CC(C)C4)cc3c2C)CC1` (stereo not drawn), the AC50 is 12.6 µM [falling, single point].

As for `O=C(C1CCC1)N1CCc2cc(S(=O)(=O)NCc3ccco3)ccc21`, the AC50 was 12.6 µM [rising, single point]. For the compound `CC1(Cc2ccc3c(c2)OCO3)NC(=O)NC1=O` (stereo not drawn), the AC50 was 12.6 µM [falling, single point]. Regarding `COc1ccccc1OCCn1cc(C(=O)c2ccco2)c2ccccc21`, the AC50 was 25.1 µM [falling, single point]. For the compound `COc1ccc(NC2=C(C(C)=O)C(c3ccc4c(c3)OCO4)C(C(C)=O)C(C)(O)C2)cc1` (stereo not drawn), the AC50 was 31.6 µM [falling, single point]. The figure for `COc1ccc(CCNC(=O)C2CCN(Cc3nc(-c4cccc(Cl)c4)oc3C)CC2)cc1OC` is 0.398 µM [falling, full curve, poor fit]; for `FC(F)(F)c1ccccc1-c1cncnc1NCCN1CCOCC1` it is 0.794 µM [rising, full curve, poor fit]. For `Cc1cccc(-n2ncc3c(NCc4ccccn4)ncnc32)c1`, the concentration at half-maximal activity (AC50) is 12.6 µM [rising, single point]. The figure for `COc1ccc2c(c1)OCC1=C2CCC2(C)C(=O)CC=C12` (stereo not drawn) is 10 µM [falling, partial curve]. To `N#Cc1nc(-c2ccccc2)oc1N1CCCCC1` belongs 7.94 µM [rising, partial curve]; to `COCCn1c(=O)c(-c2ccc(OC)cc2)nc2cnc(N3CCNCC3)nc21`, 5.01 µM [rising, partial curve]; to `CCN1CC2=C(OC(N)=C(C#N)C2c2cccs2)/C(=C/c2cccs2)C1` (stereo not drawn), 10 µM [falling, partial curve]. To `COc1ccc(S(=O)(=O)NCc2ccc(C(=O)N3CCN(c4ccccn4)CC3)cc2)cc1` belongs 0.00316 µM [falling, full curve, poor fit]; to `COc1cc(NC2=CC(=O)CC(C)(C)C2)cc(OC)c1`, 0.398 µM [falling, full curve]. In the case of `CCNc1ncc2nc(-c3ccc(OC)cc3)c(=O)n(Cc3cccs3)c2n1`, the AC50 is 0.794 µM [rising, partial curve]. For the compound `C#CCNc1nc(CC)nc2c1nnn2Cc1ccccc1F`, the AC50 is 7.94 µM [rising, partial curve]. The figure for `CCOc1cc2[nH]c(=O)n(Cc3cccc(OC)c3)c(=O)c2cc1OCC` is 2 µM [rising, partial curve].

Take `COCCNc1ncnc2ccc(-c3ccc(C(=O)N(C)C)cc3)cc12`: the AC50 was 7.94 µM [rising, partial curve]. To `Cc1ccc2[nH]c(=O)c(-c3nc4c(C)cccn4c3NCc3ccco3)cc2c1` belongs 5.01 µM [falling, single point]; to `Cc1ccc(NC(=O)/C(CN(C)C)=N\O)cc1`, 12.6 µM [falling, single point]; to `O=C(c1cccc(F)c1)N1CCC2(CCCN(c3ccccc3)C2)CC1`, 25.1 µM [rising, single point]. The figure for `CCCCc1c(C)nn(-c2nnc3c4ccccc4n(CC)c3n2)c1C` is 1.26 µM [rising, full curve]; for `c1ccc(-c2csc(Nc3nc(N4CCOCC4)nc(N4CCOCC4)n3)n2)cc1` it is 1.26 µM [rising, full curve]; for `Cc1ccc2nc(NC(=O)CCNS(=O)(=O)c3ccc(Br)s3)sc2c1` it is 0.794 µM [falling, partial curve]. To `Cn1c(-c2ccc(F)cc2)cnc1SCC(=O)Nc1ccccc1N1CCOCC1` belongs 20 µM [rising, single point]; to `c1ccc2sc(SN3CCOCC3)nc2c1`, 0.316 µM [falling, full curve, poor fit]; to `COC(=O)c1ccc(C2C3=C(Nc4nnnn42)c2ccccc2OC3)cc1` (stereo not drawn), 10 µM [rising, partial curve].

On to `COC(=O)CSc1nnc(-c2cccs2)n1-c1ccc(Cl)cc1`, for which the AC50 was 12.6 µM [falling, partial curve].

Turning to `CCC(C)NC(=O)c1c(N)n(/N=C/c2ccccn2)c2nc3ccccc3nc12` (stereo not drawn), the AC50 was 5.01 µM [rising, partial curve]. On to `O=C(Cn1nnc(-c2ccccc2)n1)OCc1ccccc1`, for which the AC50 is 3.98 µM [falling, single point]. The figure for `COc1ccccc1-c1nc(NCc2cccnc2)c2ccccc2n1` is 6.31 µM [rising, partial curve]; for `COC(=O)c1c(-c2ccc(F)cc2)csc1NC(=O)c1ccco1` it is 0.794 µM [rising, full curve]; for `COc1cccc(-c2ccc3ncnc(NCc4ccccc4OC)c3c2)c1` it is 3.98 µM [rising, partial curve, poor fit]. To `Cc1ccc(S(=O)(=O)N[C@@H](Cc2ccccc2)C(=O)CCl)cc1` belongs 10 µM [falling, full curve]. `COc1ccc(CNC(=O)Nc2cccc(C)c2)cc1`: the AC50 was 0.501 µM [falling, full curve, poor fit]. The figure for `CCCn1c(N2CCC(Cc3ccccc3)CC2)nc2c1c(=O)[nH]c(=O)n2C` is 25.1 µM [falling, single point]; for `CCC/C=C(\CCC)C(NS(=O)(=O)c1ccc(Cl)cc1)c1ccccc1` (stereo not drawn) it is 3.16 µM [rising, single point]. With `CCNc1ncc2ncc(=O)n(Cc3cccs3)c2n1`, the AC50 was 12.6 µM [falling, single point]. The figure for `Cc1ccccc1-n1nc2c(c1NC(=O)c1cc3ccccc3oc1=O)CS(=O)(=O)C2` is 1.26 µM [rising, full curve].

Regarding `N#Cc1c(C(F)(F)F)cc(-c2ccccc2)nc1SCc1nc(N)nc(N2CCOCC2)n1`, the half-maximal activity concentration (AC50) was 2.51 µM [rising, full curve]. To `Cc1ccc(C(=O)Oc2ccc3c(c2)ncn3C)cc1` belongs 0.01 µM [falling, full curve, poor fit]; to `CCc1nc(SCc2ccc(C(=O)OC)o2)c2c(=O)n(C)c(=O)n(C)c2n1`, 2 µM [rising, full curve]; to `Cc1ccc(C)c(N2CCN(C(=O)COc3cc(=O)n(C)c4ccccc34)CC2)c1`, 5.01 µM [rising, single point].
